This note sets out measurements from article PMC4689063.

Chains of the proteins cited; added tags and fusions are not shown. Residues count along the entry.
UniProt G3H953: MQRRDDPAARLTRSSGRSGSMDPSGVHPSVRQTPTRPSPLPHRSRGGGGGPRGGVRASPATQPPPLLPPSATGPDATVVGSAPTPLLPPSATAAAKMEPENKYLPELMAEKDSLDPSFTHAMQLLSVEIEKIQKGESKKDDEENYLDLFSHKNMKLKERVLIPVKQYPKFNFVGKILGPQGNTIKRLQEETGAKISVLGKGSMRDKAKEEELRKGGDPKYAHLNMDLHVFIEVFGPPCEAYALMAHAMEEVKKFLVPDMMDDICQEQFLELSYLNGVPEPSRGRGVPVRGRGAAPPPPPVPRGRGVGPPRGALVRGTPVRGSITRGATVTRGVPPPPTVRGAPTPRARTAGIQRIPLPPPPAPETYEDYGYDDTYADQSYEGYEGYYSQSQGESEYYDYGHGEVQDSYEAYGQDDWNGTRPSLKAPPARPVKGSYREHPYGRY
UniProt P03309, residues 1864-2333: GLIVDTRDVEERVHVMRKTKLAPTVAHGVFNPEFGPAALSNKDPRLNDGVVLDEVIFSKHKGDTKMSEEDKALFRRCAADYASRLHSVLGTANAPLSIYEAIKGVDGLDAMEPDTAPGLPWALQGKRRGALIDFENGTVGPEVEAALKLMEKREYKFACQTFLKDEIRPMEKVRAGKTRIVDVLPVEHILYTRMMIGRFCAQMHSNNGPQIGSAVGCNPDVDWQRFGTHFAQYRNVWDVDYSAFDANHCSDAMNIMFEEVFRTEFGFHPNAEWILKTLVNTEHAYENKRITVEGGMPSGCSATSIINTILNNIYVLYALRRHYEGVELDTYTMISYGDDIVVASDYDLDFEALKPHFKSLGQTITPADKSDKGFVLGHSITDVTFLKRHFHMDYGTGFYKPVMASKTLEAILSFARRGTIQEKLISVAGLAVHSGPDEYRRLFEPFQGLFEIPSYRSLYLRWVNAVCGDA

Results are given in words; binding and its absence hold for the method and conditions named. Binding seen in cells or lysates may run through a third protein. Some binding calls cover weakened binding; strength is not graded here.

The target in assay [1] is Src-associated protein of 68 kDa in mitosis (Sam68), endogenous in BHK-21 cells (hamster (endogenous in BHK-21)) (UniProt G3H953). As to the kind of experiment: co-IP.
Assay [2] has as its target FMDV RNA-dependent RNA polymerase 3D^pol, from infected BHK-21 cells (foot-and-mouth disease virus (type A24 Cruzeiro)) (UniProt P03309). As to the kind of experiment: co-IP.

As to “FMDV RNA-dependent RNA polymerase 3D^pol, from infected BHK-21 cells (from UniProt P03309) (enzyme)”, in assay [1], the binding result is given as “binds”. On to “Src-associated protein of 68 kDa in mitosis (Sam68), endogenous in BHK-21 cells (from UniProt G3H953 1-443)”, for which the binding entry in assay [2] is on record as “binds”.
